In article PMC10928986, “ARTC1-mediated VAPB ADP-ribosylation regulates calcium homeostasis” (Journal of Molecular Cell Biology, 2023) one finds binding data, which are given here for one substance.

By UniProt entry, the sequences of proteins in these tests, tags left out. Residues count along the entry.
UniProt P52961, residues 23-295: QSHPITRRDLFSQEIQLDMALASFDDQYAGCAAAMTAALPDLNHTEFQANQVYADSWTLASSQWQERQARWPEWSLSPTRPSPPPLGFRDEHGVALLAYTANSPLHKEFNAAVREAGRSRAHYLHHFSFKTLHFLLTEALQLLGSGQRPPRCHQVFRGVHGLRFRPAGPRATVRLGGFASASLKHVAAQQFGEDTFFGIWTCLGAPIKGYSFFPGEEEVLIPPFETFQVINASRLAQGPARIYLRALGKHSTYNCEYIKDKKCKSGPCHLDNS

The target in this assay is T1, S-Flag-streptavidin binding protein (SFB)-tagged hARTC3 (human) (UniProt Q13508).
T1 sequence: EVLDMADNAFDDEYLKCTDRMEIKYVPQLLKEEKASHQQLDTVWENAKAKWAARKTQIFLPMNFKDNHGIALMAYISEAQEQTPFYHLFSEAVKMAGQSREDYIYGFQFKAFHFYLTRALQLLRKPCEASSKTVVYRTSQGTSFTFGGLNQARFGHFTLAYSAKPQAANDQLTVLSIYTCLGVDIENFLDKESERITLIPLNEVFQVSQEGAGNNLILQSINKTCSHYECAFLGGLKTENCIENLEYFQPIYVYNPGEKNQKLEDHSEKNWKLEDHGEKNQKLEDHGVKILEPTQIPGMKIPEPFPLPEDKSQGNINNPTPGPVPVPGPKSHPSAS
The experiment in a line: affinity purification with mass spectrometry; tandem affinity purification (streptavidin agarose, biotin elution, S beads) from HEK-293T cells stably expressing SFB-hARTC1 or SFB-hARTC3; NETN buffers; whole lane analysed by MS.

No constants are given. Whether binding was seen depends on the method and setting. Binding seen in cells or lysates may run through a third protein. Here binding means that the protein was enriched with, or labelled near, the bait; the list need not be complete. Tags and fused reporters may be left off the sequences shown.

Take “endogenous hARTC1 (from UniProt P52961 23-295) (enzyme)”: the binding result is recorded as “binds”.
